Our source for the binding values is paper PMC12780113.

Chains of the proteins cited; added tags and fusions are not shown.
UniProt O15379: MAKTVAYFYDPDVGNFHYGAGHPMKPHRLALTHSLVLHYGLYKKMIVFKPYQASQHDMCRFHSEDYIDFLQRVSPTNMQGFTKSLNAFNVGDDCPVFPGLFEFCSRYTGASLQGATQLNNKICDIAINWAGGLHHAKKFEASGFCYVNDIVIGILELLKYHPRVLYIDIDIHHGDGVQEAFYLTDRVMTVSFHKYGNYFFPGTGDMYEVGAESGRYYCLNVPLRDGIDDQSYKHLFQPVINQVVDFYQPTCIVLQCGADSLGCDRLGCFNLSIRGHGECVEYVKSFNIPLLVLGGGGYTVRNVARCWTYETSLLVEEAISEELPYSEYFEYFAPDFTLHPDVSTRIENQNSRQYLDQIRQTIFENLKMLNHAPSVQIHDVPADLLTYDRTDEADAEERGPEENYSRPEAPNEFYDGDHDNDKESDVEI

Assay [1] addresses HDAC3, exogenous, in 293T cells (co-IP) (UniProt O15379). As to the kind of experiment: co-IP; 293T cells transfected with tagged plasmids; cleared lysate precipitated with anti-HA or anti-Myc tag antibody and protein G-plus beads at 4 °C, washed with 0.2% digitonin buffer and PBS, immunoblot.
The target of a further assay is Flag-HDAC3 (UniProt O15379). Description: co-IP; lysates of gastric cancer cells (MKN-45, HGC-27), untransfected or transfected with Flag-HNF4A(WT), Flag-HNF4A(K458R) or Flag-HDAC3; IP overnight at 4 °C with anti-HDAC3 antibody or control IgG, protein A, immunoblot for HDAC3 and HNF4A; cells also treated with λ-phosphatase, PKCi, chidamide, RGFP966 or BAY-3827 (binding told as decreased).

Assay [2] has as its target HDAC3 (endogenous, gastric cancer cells) (human (endogenous in MKN-45 and HGC-27)) (UniProt O15379). Described as above.

Results are given in words; binding and its absence hold for the method and conditions named. In cells and extracts the contact can be indirect. Some entries that bind do so weakly or less than the wild type. For part of these data: Tags and fused reporters may be left off the sequences shown.

B1: HNF4A wild type, HA-tagged or Myc-tagged, in 293T cells (protein, UniProt P41235 1-474)
chain: MRLSKTLVDMDMADYSAALDPAYTTLEFENVQVLTMGNDTSPSEGTNLNAPNSLGVSALCAICGDRATGKHYGASSCDGCKGFFRRSVRKNHMYSCRFSRQCVVDKDKRNQCRYCRLKKCFRAGMKKEAVQNERDRISTRRSSYEDSSLPSINALLQAEVLSRQITSPVSGINGDIRAKKIASIADVCESMKEQLLVLVEWAKYIPAFCELPLDDQVALLRAHAGEHLLLGATKRSMVFKDVLLLGNDYIVPRHCPELAEMSRVSIRILDELVLPFQELQIDDNEYAYLKAIIFFDPDAKGLSDPGKIKRLRSQVQVSLEDYINDRQYDSRGRFGELLLLLPTLQSITWQMIEQIQFIKLFGMAKIDNLLQEMLLGGSPSDAPHAHHPLHPHLMQEHMGTNVIVANTMPTHLSNGQMCEWPRPRGQAATPETPQPSPPGGSGSEPYKLLPGAVATIVKPLSAIPQPTITKQEVI
With B1, the binding entry in assay [1] is “binds”.

B2: Hepatocyte nuclear factor 4 alpha (HNF4A), endogenous, gastric cancer cells (protein, UniProt P41235 1-474)
chain: MRLSKTLVDMDMADYSAALDPAYTTLEFENVQVLTMGNDTSPSEGTNLNAPNSLGVSALCAICGDRATGKHYGASSCDGCKGFFRRSVRKNHMYSCRFSRQCVVDKDKRNQCRYCRLKKCFRAGMKKEAVQNERDRISTRRSSYEDSSLPSINALLQAEVLSRQITSPVSGINGDIRAKKIASIADVCESMKEQLLVLVEWAKYIPAFCELPLDDQVALLRAHAGEHLLLGATKRSMVFKDVLLLGNDYIVPRHCPELAEMSRVSIRILDELVLPFQELQIDDNEYAYLKAIIFFDPDAKGLSDPGKIKRLRSQVQVSLEDYINDRQYDSRGRFGELLLLLPTLQSITWQMIEQIQFIKLFGMAKIDNLLQEMLLGGSPSDAPHAHHPLHPHLMQEHMGTNVIVANTMPTHLSNGQMCEWPRPRGQAATPETPQPSPPGGSGSEPYKLLPGAVATIVKPLSAIPQPTITKQEVI
Consider B2, for which the binding entry (with Flag-HDAC3; in assay [2]) was “binds” each time.
